Protein sequences, listed by entry. Tags and fused reporters are not part of them. Lines headed by an entry give the natural chain unless they say otherwise; changes in a name come on top.
UniProt P20594: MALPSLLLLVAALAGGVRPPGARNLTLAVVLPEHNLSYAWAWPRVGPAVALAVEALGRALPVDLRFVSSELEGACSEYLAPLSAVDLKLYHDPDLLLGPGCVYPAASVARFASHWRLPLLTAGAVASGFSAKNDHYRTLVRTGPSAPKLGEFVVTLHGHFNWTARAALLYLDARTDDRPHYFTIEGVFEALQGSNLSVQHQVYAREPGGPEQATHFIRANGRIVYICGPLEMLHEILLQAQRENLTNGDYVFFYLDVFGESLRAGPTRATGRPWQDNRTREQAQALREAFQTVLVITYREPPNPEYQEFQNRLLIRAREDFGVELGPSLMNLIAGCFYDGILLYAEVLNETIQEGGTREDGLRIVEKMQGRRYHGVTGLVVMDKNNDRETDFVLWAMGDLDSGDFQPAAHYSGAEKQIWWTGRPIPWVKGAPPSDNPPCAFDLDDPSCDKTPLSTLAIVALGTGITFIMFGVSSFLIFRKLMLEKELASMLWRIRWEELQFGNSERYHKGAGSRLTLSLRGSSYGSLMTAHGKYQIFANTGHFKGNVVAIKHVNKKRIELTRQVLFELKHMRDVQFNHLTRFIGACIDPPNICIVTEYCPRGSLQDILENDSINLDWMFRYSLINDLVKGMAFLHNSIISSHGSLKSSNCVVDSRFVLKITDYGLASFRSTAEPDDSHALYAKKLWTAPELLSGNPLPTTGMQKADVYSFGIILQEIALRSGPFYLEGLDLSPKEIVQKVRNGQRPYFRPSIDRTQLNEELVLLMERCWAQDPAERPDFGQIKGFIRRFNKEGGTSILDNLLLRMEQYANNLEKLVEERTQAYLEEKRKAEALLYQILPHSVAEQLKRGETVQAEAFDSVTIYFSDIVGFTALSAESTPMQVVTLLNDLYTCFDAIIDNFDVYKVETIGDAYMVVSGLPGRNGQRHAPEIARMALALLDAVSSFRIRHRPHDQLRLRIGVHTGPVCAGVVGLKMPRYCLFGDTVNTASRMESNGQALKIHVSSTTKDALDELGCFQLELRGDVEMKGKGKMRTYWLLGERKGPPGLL

Hit rate of the full screen: of about 1,400 compounds, about 940 (67%) were called active. The set was probably picked from earlier hits. The inconclusive results got no clear call from the source; some entries with a clear call stand among them for comparison. The call rests on the fitted dose curve. A potency beside an inconclusive call is a rough fit, not a confirmed value.
Each molecule was assayed against Atrial natriuretic peptide receptor 2 (Homo sapiens) (UniProt P20594) (assay: Natriuretic polypeptide receptor (hNpr2) antagonism - Subtype selectivity assay). Details: HEK293 hNpr2 GloSensor cGMP luminescence, CNP-stimulated; series mostly up to 57.6 µM.
Outline: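 Antagonist mode: HEK293 cells co-expressing hNpr2 and the GloSensor cGMP reporter were preincubated with compound for 30 min. They were then stimulated with 1 nM hNppC for 20 min at room temperature, and luminescence was compared with the pre-agonist baseline.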
`COc1ccc(S(=O)(=O)N2CCc3c(C(=O)NCCc4ccccn4)cccc32)cc1` was tested, and the Potency was inconclusive: 24.3 µM [inhibitor, partial curve].
`COc1ccccc1C(=O)N1CCC(Cc2nc(-c3ccc(F)cc3)no2)CC1` was tested, and the Potency was active: 12.2 µM.
For `CCOC(=O)c1ccc(NC(=O)Cn2c(N(C)Cc3ccccc3)nc(C)cc2=O)cc1`, the Potency was active: 21.7 µM.
In the case of `O=C(NCc1cc(F)ccc1F)c1csc(N2CCN(c3ccccc3F)CC2)n1`, the Potency is reported as inconclusive: 24.3 µM [inhibitor, single point].
`COc1cccc(S(=O)(=O)N2CCC(n3cnnc3C(C)C)CC2)c1` was tested, and the Potency was inconclusive: 43.2 µM [inhibitor, single point].
For `O=C(Nc1ccc(Cl)cc1)c1cc2n(n1)CC(c1ccc(Cl)cc1)OC2` (stereo unspecified), the Potency was inconclusive: 24.3 µM [inhibitor, partial curve].
For `O=C(Nc1ccncc1)C1=NO[C@@H]2CN(CCc3ccccc3)C[C@H]12`, the Potency was inconclusive: 28 µM [inhibitor, partial curve].
In the case of `O[C@H]1CC[C@@H](Cc2cc(-c3ccc(F)cc3)on2)O[C@@H]1CNC1CCCCC1`, the Potency is reported as inconclusive: 44.4 µM [inhibitor, single point].
For `Cc1noc(C)c1-c1cnc2[nH]cc(CC(=O)N3CCOCC3)c2c1`, the Potency was inconclusive: 31.4 µM [inhibitor, partial curve].
With `Cc1nn2c(c1-c1ccccc1C(N)=O)N(CCCc1ccccc1)CCC2` the Potency was inconclusive: 12.5 µM [inhibitor, partial curve, poor fit].
For `CC(C)Oc1ccc(CN2C[C@@H](CO)[C@H](c3ccncc3)C2)cc1`, the Potency was inconclusive: 30.6 µM [inhibitor, single point].
With `CCOc1ccccc1C1NC(=O)N(CC(=O)Nc2cccc(C(C)C)c2)C2=C1C(=O)OC2` (stereo unspecified) the Potency was inconclusive: 34.3 µM [inhibitor, single point].
In the case of `CN1CCC(NC[C@H]2O[C@H](Cc3cc(-c4cccc(O)c4)on3)CC[C@@H]2O)CC1`, the Potency is reported as “inactive”.
`CN(C)C[C@H]1O[C@H](Cc2cc(-c3cccc(O)c3)on2)CC[C@@H]1O` was tested, and the Potency was “inactive”.
With `O=C(c1ccnc2ccccc12)N1CCC2(CC1)Nc1ccccc1NC2=O` the Potency was inconclusive: 34.3 µM [inhibitor, single point].
With `Cc1cccc(CC(=O)N2CCCN(c3cc(-c4ccc(Br)cc4)[nH]n3)CC2)c1` the Potency was active: 24.3 µM.
`COc1ccc(OC)c(CNC(=O)c2cccc3c2CCN3C(=O)c2ccc(F)cc2)c1` was tested, and the Potency was inconclusive: 34.3 µM [inhibitor, partial curve].
For `O=C(O)COc1ccc(-c2nccc3c2C(=O)N(Cc2cccc(C(F)(F)F)c2)CC(CNC(=O)C2CCOCC2)O3)cc1` (stereo unspecified), the Potency was inconclusive: 12.2 µM [inhibitor, partial curve].
With `O=C(NCCOc1ccccc1)c1cnc2n1CCN(Cc1c[nH]c3ccccc13)CC2` the Potency was inconclusive: 35.3 µM [inhibitor, partial curve].
With `Cc1ccc2c(c1)nc1n2[C@@H](CNCc2ccccc2)COC1` the Potency was inconclusive: 39.6 µM [inhibitor, partial curve].
In the case of `O=C(Cc1c[nH]c2ncc(-c3ccccc3)cc12)N1CCCC1`, the Potency is reported as inconclusive: 31.4 µM [inhibitor, partial curve].
In the case of `COc1ccc(NC(=O)c2cc3n(n2)CC(c2ccc4c(c2)OCO4)OC3)cc1Cl` (stereo unspecified), the Potency is reported as “inactive”.
With `COc1ccc(C(=O)N2CCC3(CC2)NC(=O)N(Cc2ccc(F)cc2)C3=O)cc1F` the Potency was active: 21.7 µM.
`CC(C)c1noc(-c2cn(C3CCN(C(=O)c4cccc(Cl)c4)C3)nn2)n1` (stereo unspecified) was tested, and the Potency was active: 27.3 µM.
With `COC(=O)[C@@H]1Cc2c([nH]c3ccccc23)[C@H]2C[C@@H](NCCCn3ccnc3)C[C@@H](c3ccccc3F)N21` the Potency was “inactive”.
For `O=c1[nH]c(C2CCN(Cc3ccc(-c4cccnc4)cc3)CC2)nc2ccc(F)cc12`, the Potency was active: 19.3 µM.
In the case of `Cc1cc(=O)n(CC(=O)Nc2ccccc2C)c(N2CCc3ccccc3C2)n1`, the Potency is reported as “inactive”.
In the case of `O=C(Nc1ccc2cn[nH]c2c1)c1ccc2c(c1)OCCN(c1ccccc1)C2`, the Potency is reported as inconclusive: 49.8 µM [inhibitor, single point].
In the case of `Cc1noc(C)c1CCC(=O)NC1CCCc2c1[nH]c1c(Cl)cccc21` (stereo unspecified), the Potency is reported as inconclusive: 43.2 µM [inhibitor, single point].
With `Cc1ccc(-c2noc([C@@H]3C[C@H](NC(=O)CC(C)(C)C)CN3C)n2)cc1` the Potency was inconclusive: 62.7 µM [inhibitor, single point].
With `C[S+](=O)([O-])CCn1ncc2cc(OCC3CCN(c4ncc(F)cn4)CC3)ccc21` the Potency was inconclusive: 12.5 µM [inhibitor, full curve].
In the case of `CCN(CC)C(=O)c1cc2c(s1)CCC(C(=O)Nc1ccc(OC)c(F)c1)C2` (stereo unspecified), the Potency is reported as active: 21.7 µM.
For `Cc1cc(=O)n(CC(=O)Nc2ccc(Br)cc2F)c(N(C)Cc2ccccc2)n1`, the Potency was active: 19.3 µM.
For `COc1ccc(S(=O)(=O)NC[C@H]2Cn3c(-c4ccc(Cl)cc4)cnc3CO2)cc1`, the Potency was inconclusive: 35.3 µM [inhibitor, partial curve].
For `COc1cccc(N2CCN(c3nc(C(=O)NCc4ccccc4F)cs3)CC2)c1`, the Potency was inconclusive: 24.3 µM [inhibitor, partial curve].
In the case of `O=C(c1ccc(F)cc1Cl)N1CCC(n2cc(-c3nc(C4CC4)no3)nn2)C1` (stereo unspecified), the Potency is reported as inconclusive: 43.2 µM [inhibitor, single point].
With `CC(C)c1ccc(NC(=O)c2cc3n(n2)CC(c2ccc(Cl)cc2)OC3)cc1` (stereo unspecified) the Potency was inconclusive: 19.3 µM [inhibitor, partial curve].
`CNC(=O)c1cccc(-c2cnc3[nH]cc(CC(=O)N(C)c4ccccc4)c3c2)c1` was tested, and the Potency was active: 35.3 µM.
In the case of `CC(=O)N1CCc2cc(S(=O)(=O)CCC(=O)N3CCC(CCOc4ccccc4)C3)ccc21` (stereo unspecified), the Potency is reported as inconclusive: 24.3 µM [inhibitor, partial curve].
For `COc1ccc(OC)c(CN2CCCn3nc(C)c(-c4ccccc4OCc4ccccc4)c32)c1`, the Potency was active: 19.3 µM.
With `CC(C)OC(=O)N1CCC(COc2ccc3c(cnn3CC[S+](C)(=O)[O-])c2)CC1` the Potency was active: 22.2 µM.

Reference: PubChem BioAssay AID1347046 (National Center for Advancing Translational Sciences (NCATS), 2019)
Further: nearly all actives have a fitted effect of over 70% in size.
Potency means the concentration at half of the fitted maximal effect.
